The values below come from article PMC5593949.

Amino acid sequences for entries named in this document (tags omitted).
UniProt A0A1D8PCM9: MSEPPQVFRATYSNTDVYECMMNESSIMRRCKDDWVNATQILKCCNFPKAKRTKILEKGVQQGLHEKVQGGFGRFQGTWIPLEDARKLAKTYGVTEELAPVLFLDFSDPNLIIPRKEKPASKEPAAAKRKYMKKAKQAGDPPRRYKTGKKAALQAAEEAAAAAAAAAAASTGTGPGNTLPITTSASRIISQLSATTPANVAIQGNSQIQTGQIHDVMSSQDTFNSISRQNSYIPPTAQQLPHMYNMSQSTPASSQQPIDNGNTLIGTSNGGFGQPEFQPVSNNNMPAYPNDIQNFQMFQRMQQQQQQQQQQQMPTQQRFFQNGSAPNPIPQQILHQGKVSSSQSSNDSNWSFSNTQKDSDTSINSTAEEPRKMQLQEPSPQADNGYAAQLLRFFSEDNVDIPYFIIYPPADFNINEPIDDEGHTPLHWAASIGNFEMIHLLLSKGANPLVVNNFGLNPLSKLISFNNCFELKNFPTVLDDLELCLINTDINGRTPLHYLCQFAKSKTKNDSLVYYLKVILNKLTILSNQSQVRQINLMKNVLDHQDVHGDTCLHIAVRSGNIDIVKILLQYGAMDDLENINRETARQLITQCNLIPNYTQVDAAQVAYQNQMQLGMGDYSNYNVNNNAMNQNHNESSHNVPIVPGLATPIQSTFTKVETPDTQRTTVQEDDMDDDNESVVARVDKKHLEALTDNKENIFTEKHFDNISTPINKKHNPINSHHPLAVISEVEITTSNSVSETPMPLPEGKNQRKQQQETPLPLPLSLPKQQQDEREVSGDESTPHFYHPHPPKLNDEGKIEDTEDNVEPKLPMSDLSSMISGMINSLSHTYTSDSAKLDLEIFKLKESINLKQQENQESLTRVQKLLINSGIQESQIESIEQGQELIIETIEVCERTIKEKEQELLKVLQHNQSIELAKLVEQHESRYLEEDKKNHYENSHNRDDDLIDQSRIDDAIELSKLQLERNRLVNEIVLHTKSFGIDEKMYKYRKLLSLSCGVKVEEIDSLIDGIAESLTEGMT

The target of this assay is T1, Cas5-HA (C terminally HA-tagged Cas5) (C. albicans) (UniProt Q5AMH6).
T1 sequence: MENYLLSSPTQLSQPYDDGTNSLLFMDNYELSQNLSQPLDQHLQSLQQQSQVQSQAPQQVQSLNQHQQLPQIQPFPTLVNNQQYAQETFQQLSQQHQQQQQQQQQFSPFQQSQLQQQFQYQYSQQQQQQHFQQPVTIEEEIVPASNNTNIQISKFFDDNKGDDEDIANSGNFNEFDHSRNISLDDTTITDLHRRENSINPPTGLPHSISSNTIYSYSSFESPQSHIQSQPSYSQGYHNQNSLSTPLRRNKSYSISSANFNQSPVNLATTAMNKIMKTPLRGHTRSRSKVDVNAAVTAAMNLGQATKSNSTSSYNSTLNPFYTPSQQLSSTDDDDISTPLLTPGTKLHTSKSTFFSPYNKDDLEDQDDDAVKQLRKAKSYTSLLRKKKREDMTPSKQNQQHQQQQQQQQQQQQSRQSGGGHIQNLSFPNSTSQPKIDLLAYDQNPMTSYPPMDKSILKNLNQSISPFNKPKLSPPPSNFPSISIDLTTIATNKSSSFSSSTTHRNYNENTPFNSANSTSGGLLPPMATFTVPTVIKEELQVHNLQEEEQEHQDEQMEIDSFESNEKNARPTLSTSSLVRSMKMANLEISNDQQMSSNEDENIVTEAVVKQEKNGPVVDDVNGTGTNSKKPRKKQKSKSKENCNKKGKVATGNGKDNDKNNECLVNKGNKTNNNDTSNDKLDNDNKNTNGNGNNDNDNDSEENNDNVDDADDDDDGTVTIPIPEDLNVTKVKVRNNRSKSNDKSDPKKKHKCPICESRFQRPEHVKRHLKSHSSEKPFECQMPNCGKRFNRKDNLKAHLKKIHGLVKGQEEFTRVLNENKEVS
As to the kind of experiment: affinity purification with mass spectrometry; clarified whole-cell lysates (10 mg protein per sample) extracted with immobilized anti-HA beads for 3 h; washed with lysis buffer and water; eluted with 0.15% TFA; trypsin digest, LC-MS/MS; SAINT probability threshold 0.9.

No constants are given. Whether binding was seen depends on the method and setting. Binding seen in cells or lysates may run through a third protein. A yes stands for co-enrichment or nearness to the bait. Other partners may have been found. Tags and fused reporters may be left off the sequences shown.

Take Swi4 (from UniProt A0A1D8PCM9 1-1019): the binding entry is given as “binds”.
